# Experimental data from PubChem BioAssay AID256 (DTP/NCI, 2004).
# The list is a part of this screen's results and no random one: it is rich in T/C values a quarter to a half above the control, in often repeated tests (any T/C) and in doses without a T/C. Further doses and runs are listed elsewhere. T/C: endpoint of the treated group in % of that of the vehicle group. Some doses have a count of surviving animals in place of a T/C: the source files T/C as zero there, which appears to mark a toxic dose or a test without result, not a measured value. Some survivor counts are full or nearly so, which does not show that the dose was tolerated: survival well below the control is almost never listed, so the zero probably covers shortened survival too. Counts of survivors are from the toxicity check (mostly the fifth day) where no day follows; animals may have died later. Schedule codes are those of the source, read here as Q, the interval in days (D) or hours (H), X, the number of doses. For survival time, this PubChem deposit counts one and a half times the control or more as active, and values a quarter to a half above the control carry no call in these data; other NCI protocols may use other cut-offs. Some T/C values carry the count of animals alive at the toxicity check (mostly the fifth day); without a count, all were alive then. Some doses were run more than once; the values are given in rising order. Additions like (4×) count equal records among those shown. Some schedules carry Z or #; the key to these is not given.
# Test system: CD2F1 mice, L1210 leukemia ip, survival T/C
# Assay: NCI In Vivo Anticancer Drug Screen. Data for tumor model L1210 Leukemia (intraperitoneal) in CD2F1 (CDF1) mice
# Conditions: higher T/C = longer survival
# Procedure, shortened: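 Implant tumor; dose compound or vehicle; measure endpoint in both groups; report treated divided by control.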
# [1] = T/C endpoint: mean survival time, dose: 200.0 mg/kg/injection, schedule: Q04DX003 (ip), vehicle: saline
# [2] = T/C endpoint: mean survival time, dose: 400.0 mg/kg/injection, schedule: Q04DX003 (ip), vehicle: saline
# [3] = T/C endpoint: mean survival time, dose: 400.0 mg/kg/injection, schedule: Q01DX009 (ip), vehicle: saline
# [4] = T/C endpoint: mean survival time, dose: 200.0 mg/kg/injection, schedule: Q01DX009 (ip), vehicle: saline
# [5] = T/C endpoint: mean survival time, dose: 400.0 mg/kg/injection, schedule: Q04DX003 (ip), vehicle: saline with Tween-80
# [6] = T/C endpoint: mean survival time, dose: 100.0 mg/kg/injection, schedule: Q04DX003 (ip), vehicle: saline with Tween-80
# [7] = T/C endpoint: mean survival time, dose: 200.0 mg/kg/injection, schedule: Q04DX002 (ip), vehicle: saline with Tween-80
# [8] = T/C endpoint: mean survival time, dose: 400.0 mg/kg/injection, schedule: Q04DX002 (ip), vehicle: saline with Tween-80
# [9] = T/C endpoint: mean survival time, dose: 100.0 mg/kg/injection, schedule: Q04DX002 (ip), vehicle: saline with Tween-80
compound,measurement,setting,value
Cc1ccc2c(c1)N(CCCN(C)C)c1ccccc1S2,survivor count,"T/C endpoint: mean survival time, dose: 100.0 mg/kg/injection, schedule: Q04DX003 (ip), vehicle: saline",3 of 6
same,survivor count,[1],0 of 6
same,survivor count,[2],0 of 6
NC(CCC(=O)NC(CSC(c1ccccc1)(c1ccccc1)c1ccc(F)cc1)C(=O)NCC(=O)O)C(=O)O (configuration not stated),T/C,"T/C endpoint: mean survival time, dose: 50.0 mg/kg/injection, schedule: Q01DX009 (ip), vehicle: saline",128 % of control
same,T/C,"T/C endpoint: mean survival time, dose: 100.0 mg/kg/injection, schedule: Q01DX009 (ip), vehicle: saline",136 % of control
same,T/C,[3],140 % of control
CC(C)N(CCCC#N)C(C)C,survivor count,[4],0 of 6
same,survivor count,[5],0 of 6
Nc1ccc(O)c(N)c1,survivor count,"T/C endpoint: mean survival time, dose: 100.0 mg/kg/injection, schedule: Q01DX001 (ip), vehicle: saline",0 of 6
same,survivor count,"T/C endpoint: mean survival time, dose: 200.0 mg/kg/injection, schedule: Q01DX001 (ip), vehicle: saline",0 of 6
same,survivor count,"T/C endpoint: mean survival time, dose: 400.0 mg/kg/injection, schedule: Q01DX001 (ip), vehicle: saline",0 of 6
CCCCN(C)C(=O)Oc1cccc(NC(=O)OC)c1,survivor count,"T/C endpoint: mean survival time, dose: 400.0 mg/kg/injection, schedule: Q01DX009 (ip), vehicle: saline with Tween-80",3 of 6
CCOC(=O)N1CC2CCC(C1)N2C,survivor count,[1],2 of 6
same,survivor count,[2],0 of 6
O=C(O)c1ccc([N+](=O)[O-])cc1C(=O)O.[NH-]C1CCCCC1[NH-].[Pt+2],T/C,"T/C endpoint: median survival time, dose: 12.5 mg/kg/injection, schedule: Q04DX003 (ip), vehicle: saline",129 % of control
same,T/C,"T/C endpoint: median survival time, dose: 25.0 mg/kg/injection, schedule: Q04DX003 (ip), vehicle: saline",130 and 134 % of control
same,T/C,"T/C endpoint: median survival time, dose: 50.0 mg/kg/injection, schedule: Q04DX003 (ip), vehicle: saline",137 % of control
same,survivor count,"T/C endpoint: median survival time, dose: 200.0 mg/kg/injection, schedule: Q04DX003 (ip), vehicle: saline",6 of 6
CCOC(=O)Nc1cc2c3ccccc3ncc2c2ccccc12,survivor count,[6],6 of 6
O=S(=O)(F)c1ccc(N=C=S)cc1,survivor count,"T/C endpoint: mean survival time, dose: 50.0 mg/kg/injection, schedule: Q01DX009 (ip), vehicle: saline with Tween-80",2 of 6
Nc1n[nH]c(N)n1,T/C,"T/C endpoint: mean survival time, dose: 100.0 mg/kg/injection, schedule: Q## X068 (ip), vehicle: water",127 % of control [9 of 10 alive]
same,T/C,"T/C endpoint: mean survival time, dose: 125.0 mg/kg/injection, schedule: Q01DX009 (ip), vehicle: saline","109, 112, 118, 121 % of control"
same,T/C,"T/C endpoint: mean survival time, dose: 200.0 mg/kg/injection, schedule: Q01DX007 (ip), vehicle: saline",125 % of control
same,T/C,[4],"103, 117, 120, 124, 125, 128 % of control"
same,T/C,"T/C endpoint: mean survival time, dose: 200.0 mg/kg/injection, schedule: Q03HX024 (ip), vehicle: saline",126 and 138 % of control (2×)
same,T/C,"T/C endpoint: mean survival time, dose: 200.0 mg/kg/injection, schedule: Q#A X018 (ip), vehicle: water",126 % of control
same,T/C,"T/C endpoint: mean survival time, dose: 200.0 mg/kg/injection, schedule: Q#A X034 (ip), vehicle: water",146 % of control
same,T/C,"T/C endpoint: mean survival time, dose: 250.0 mg/kg/injection, schedule: Q01DX009 (ip), vehicle: saline","123, 128, 145, 146 % of control"
same,T/C,"T/C endpoint: mean survival time, dose: 400.0 mg/kg/injection, schedule: Q01DX007 (ip), vehicle: saline",125 % of control
same,T/C,[3],"103, 130 (2×), 136, 141, 157 % of control"
same,T/C,"T/C endpoint: mean survival time, dose: 400.0 mg/kg/injection, schedule: Q01DX017 (ip), vehicle: water",127 % of control
same,T/C,"T/C endpoint: mean survival time, dose: 500.0 mg/kg/injection, schedule: Q01DX009 (ip), vehicle: saline","137, 138, 143, 146, 160 % of control"
same,T/C,"T/C endpoint: mean survival time, dose: 800.0 mg/kg/injection, schedule: Q01DX009 (ip), vehicle: saline","102, 148, 151, 155 % of control"
same,T/C,"T/C endpoint: mean survival time, dose: 800.0 mg/kg/injection, schedule: Q03HX024 (ip), vehicle: saline",147 % of control
same,T/C,"T/C endpoint: mean survival time, dose: 1000.0 mg/kg/injection, schedule: Q01DX009 (ip), vehicle: saline","138, 140, 150 [5 of 6 alive], 155 % of control"
same,T/C,"T/C endpoint: mean survival time, dose: 1600.0 mg/kg/injection, schedule: Q01DX009 (ip), vehicle: saline","105, 148, 151, 162, 186 % of control"
same,T/C,"T/C endpoint: mean survival time, dose: 1600.0 mg/kg/injection, schedule: Q#A X010 (ip), vehicle: water",125 % of control
same,T/C,"T/C endpoint: mean survival time, dose: 1600.0 mg/kg/injection, schedule: Q#A X018 (ip), vehicle: water",133 % of control
same,T/C,"T/C endpoint: mean survival time, dose: 2048.0 mg/kg/injection, schedule: Q12HX018 (ip), vehicle: saline",129 % of control
CC1NC(C)SC(C)S1 (configuration not stated),survivor count,[5],2 of 6
CC(C)(C)c1ccc(SC(=O)c2ccc(C(=O)Sc3ccc(C(C)(C)C)cc3)cc2)cc1,survivor count,[7],3 of 3
same,survivor count,[8],3 of 3
O=C[N]([Hg][Cl])c1ccccc1,survivor count,"T/C endpoint: mean survival time, dose: 12.5 mg/kg/injection, schedule: Q01DX009 (ip), vehicle: saline with Tween-80",0 of 6
same,survivor count,"T/C endpoint: mean survival time, dose: 25.0 mg/kg/injection, schedule: Q01DX009 (ip), vehicle: saline with Tween-80",0 of 6
same,survivor count,"T/C endpoint: mean survival time, dose: 25.0 mg/kg/injection, schedule: Q04DX002 (ip), vehicle: saline with Tween-80",0 of 3
same,survivor count,"T/C endpoint: mean survival time, dose: 50.0 mg/kg/injection, schedule: Q04DX002 (ip), vehicle: saline with Tween-80",0 of 3
same,survivor count,[9],0 of 3
O=C1OC2CC1(O)CC(O)C2O (configuration not stated),survivor count,"T/C endpoint: mean survival time, dose: 400.0 mg/kg/injection, schedule: Q01DX001 (ip), vehicle: saline with Tween-80",6 of 6
O=C1CC2CC=CCC2C(=O)O1 (configuration not stated),survivor count,"T/C endpoint: mean survival time, dose: 300.0 mg/kg/injection, schedule: Q01DX001 (ip), vehicle: saline",2 of 6
O=S(=O)(CCCl)c1ccc(Cl)cc1,survivor count,[8],1 of 3
CCN(CC)C(=O)c1ccc[n+](CC(=O)Nc2ccccc2)c1,survivor count,[1],3 of 6
same,survivor count,[2],0 of 6
O=C1c2ccccc2CC1CN1CCCCC1 (configuration not stated),survivor count,[9],0 of 3
same,survivor count,[7],0 of 3
same,survivor count,[8],0 of 3
CCOc1cc(C=Nc2cc(Br)c(O)c(Br)c2)ccc1N(CCCl)CCCl,T/C,"T/C endpoint: mean survival time, dose: 100.0 mg/kg/injection, schedule: Q01DX001 (ip), vehicle: carboxymethylcellulose (CMC)",132 % of control
same,survivor count,"T/C endpoint: mean survival time, dose: 200.0 mg/kg/injection, schedule: Q01DX001 (ip), vehicle: carboxymethylcellulose (CMC)",2 of 4
same,survivor count,"T/C endpoint: mean survival time, dose: 400.0 mg/kg/injection, schedule: Q01DX001 (ip), vehicle: carboxymethylcellulose (CMC)",0 of 4
CCN1CC2c3cc(OC)c(OC)cc3CC(c3ccccc3)C2C1 (configuration not stated),survivor count,[6],3 of 6
same,survivor count,"T/C endpoint: mean survival time, dose: 200.0 mg/kg/injection, schedule: Q04DX003 (ip), vehicle: saline with Tween-80",0 of 6
same,survivor count,[5],0 of 6
CCN1CCCSC1=S,survivor count,"T/C endpoint: mean survival time, dose: 300.0 mg/kg/injection, schedule: Q01DX001 (ip), vehicle: other",2 of 6
CCOC(=O)CCC(NC(=O)c1ccc(N(CC)Cc2cnc3nc(N)nc(N)c3n2)cc1)C(=O)OCC (configuration not stated),T/C,"T/C endpoint: mean survival time, dose: 0.39 mg/kg/injection, schedule: Q01DX009 (ip), vehicle: Klucel (hydroxypropylcellulose) (HPC)",133 % of control
same,T/C,"T/C endpoint: mean survival time, dose: 0.78 mg/kg/injection, schedule: Q01DX009 (ip), vehicle: Klucel (hydroxypropylcellulose) (HPC)",143 % of control
same,T/C,"T/C endpoint: mean survival time, dose: 1.56 mg/kg/injection, schedule: Q01DX009 (ip), vehicle: Klucel (hydroxypropylcellulose) (HPC)",142 % of control
same,T/C,"T/C endpoint: mean survival time, dose: 3.12 mg/kg/injection, schedule: Q01DX009 (ip), vehicle: Klucel (hydroxypropylcellulose) (HPC)",130 and 141 % of control
same,survivor count,"T/C endpoint: mean survival time, dose: 6.25 mg/kg/injection, schedule: Q01DX009 (ip), vehicle: Klucel (hydroxypropylcellulose) (HPC)",3 of 6
same,survivor count,"T/C endpoint: mean survival time, dose: 12.5 mg/kg/injection, schedule: Q01DX009 (ip), vehicle: Klucel (hydroxypropylcellulose) (HPC)",6 of 6
same,survivor count,"T/C endpoint: mean survival time, dose: 25.0 mg/kg/injection, schedule: Q01DX009 (ip), vehicle: Klucel (hydroxypropylcellulose) (HPC)",3 of 6
same,survivor count,"T/C endpoint: mean survival time, dose: 100.0 mg/kg/injection, schedule: Q01DX001 (ip), vehicle: Klucel (hydroxypropylcellulose) (HPC)",1 of 4
same,survivor count,"T/C endpoint: mean survival time, dose: 200.0 mg/kg/injection, schedule: Q01DX001 (ip), vehicle: Klucel (hydroxypropylcellulose) (HPC)",1 of 5
same,survivor count,"T/C endpoint: mean survival time, dose: 400.0 mg/kg/injection, schedule: Q01DX001 (ip), vehicle: Klucel (hydroxypropylcellulose) (HPC)",1 of 5
